“And” between values parts separate entries of the source, which are not always exact repeats. Equal entries are not always repeated. Among all 300,000 compounds or so, about 5,400 (1.8%) were called active. The shares of active, inactive and inconclusive entries below differ from those in the screen. The call rests on the fitted dose curve; tested in HEK293 cells. Potencies of inconclusive entries are doubtful fits and often do not repeat.
Assay: qHTS for inhibitors of binding or entry into cells for Marburg Virus
Conditions: Marburg virus pseudotyped entry inhibition, cell reporter; series mostly up to 37.8 µM
Potency means the concentration at half of the fitted maximal effect.

SMILES | Potency
COc1cc([N+](=O)[O-])ccc1NC(=O)COC(=O)c1c[nH]c(=O)[nH]c1=O | inconclusive: 14.1 µM [inhibitor, single point]
CC(=O)Nc1ccc(S(=O)(=O)N2CCN(C(=O)c3ncoc3-c3cccc(C)c3)CC2)cc1 | inconclusive: 4.47 µM [inhibitor, partial curve, poor fit]
O=C(O)C1CCCN(S(=O)(=O)c2ccc(-c3ccc(=O)[nH]n3)s2)C1 (stereo not given) | inconclusive: 6.31 µM [activator, partial curve, poor fit]
COc1ccc(CNn2c(-c3cccs3)nc3ccccc3c2=O)cc1OC | inconclusive: 35.5 µM [inhibitor, single point]
COc1ccc(-c2cc(C(=O)Nc3ccccc3O)c3ccccc3n2)cc1 | inconclusive: 6.31 µM [inhibitor, partial curve, poor fit]
Cc1cccc(CC2S/C(=N/c3ccccn3)NC2=O)c1 (stereo not given) | inactive
Cc1nc(-c2ccc(F)cc2)c(CC(=O)N2CCN(S(=O)(=O)c3ccccc3Br)CC2)s1 | inconclusive: 22.4 µM [inhibitor, single point]
Cc1ccc(O)c(N=Cc2cccs2)c1 | inconclusive: 2.31 µM [activator, single point]
CCC(/C=C1\Sc2ccc(OC)cc2N1CCO)=C\c1sc2ccc(OC)cc2[n+]1CCO | inconclusive: 12.6 µM [inhibitor, single point]
Cn1ncc2c(Nc3cccc(Cl)c3)nc(Nc3cccc(Cl)c3)nc21 | inconclusive: 14.1 µM [inhibitor, partial curve, poor fit]
Cc1cccc(-c2c(NC(=O)c3ccco3)oc3c(C)cccc3c2=O)c1 | inconclusive: 2.24 µM [inhibitor, single point]
C/C(=N\NC(=O)c1ccc(Cl)cc1)c1cccc(NC(=O)C(C)C)c1 | inconclusive: 35.5 µM [activator, single point]
COc1ccc(N2CCN(C(=O)C3CCN(S(=O)(=O)Cc4ccccc4)CC3)CC2)cc1 | inactive
CC(C)(C)n1nnnc1C(c1cccc(C#N)c1)N1CCC(Cc2ccccc2)CC1 (stereo not given) | inactive and inconclusive: 29.1 µM [inhibitor, single point]
COc1ccc(/C=N/Nc2cc(C)nc(N3CCOCC3)n2)cc1 | inactive
Oc1ccc(Cl)cc1-c1cc(-c2ccccc2Cl)[nH]n1 | inactive
C=CCSC1=NC(N)=C(C#N)C2(CCCCC2)C1C(N)=O (stereo not given) | inconclusive: 1.3 µM [inhibitor, single point]
C=CCOc1ccc(C2C(C(=O)c3ccc(C)o3)=C(O)C(=O)N2Cc2cccnc2)cc1 (stereo not given) | inactive
O=C(NCC1CCCO1)c1ccc(/C=N/O)nc1 (stereo not given) | inconclusive: 1.26 µM [inhibitor, single point]
Cc1ccccc1-n1ncc2c(SCC(=O)N3c4ccccc4CC3C)ncnc21 (stereo not given) | inconclusive: 29.1 µM [inhibitor, single point]
Cc1cccc(C2=NCC(=O)N(CC(=O)NCc3ccco3)c3sc4c(c32)CCCC4)c1 | inactive
CCc1ccccc1NC(=O)Cn1nnc(C(=O)NCc2cccs2)c1N | inconclusive: 7.08 µM [inhibitor, partial curve, poor fit] and inconclusive: 1.78 µM [inhibitor, partial curve, poor fit]
O=C(O)c1ccccc1C(=O)Nc1ccccc1 | inactive
O=[N+]([O-])c1cc(Cl)cc(/C=N\Nc2ccccn2)c1O | inconclusive: 3.55 µM [inhibitor, partial curve, poor fit]

SMILES | Potency
COc1cc(NC(=O)c2cc(-c3ccc(Cl)c(Cl)c3)on2)cc(OC)c1OC | inactive
COC(=O)Cn1c(C)c(C#N)c2ccccc21 | inactive
Cc1cccc2c1NC(=O)C21OCC(CO)([N+](=O)[O-])CO1 (stereo not given) | inconclusive: 0.562 µM [activator, full curve, poor fit]
CCOc1ccccc1OCC(=O)Nc1ccc(OC)c(S(=O)(=O)N2CCCCC2)c1 | inconclusive: 17.8 µM [inhibitor, single point]
CCOC(=O)CNC(=O)CN1C(=O)CC(c2ccco2)Sc2ccccc21 (stereo not given) | inactive
COC(=O)c1ccc(NC(=O)CSc2nnc(COc3c(C)cccc3C)o2)cc1 | inconclusive: 3.55 µM [activator, partial curve, poor fit]
O=C(/C=C/Nc1ccc(F)cc1F)c1ccco1 | inconclusive: 14.1 µM [inhibitor, single point]
CCN1CNC(=S)N(CCc2ccccc2)C1 | inconclusive: 0.355 µM [inhibitor, partial curve, poor fit]
Nc1cccc(S(=O)(=O)c2ccc(N)c(N)c2)c1 | inactive
CCC(=O)Nc1cccc(-c2cn3ccccc3n2)c1 | inconclusive: 35.5 µM [activator, single point]
COc1ccccc1C(=O)N1CCN(c2ccc(N3CCOCC3)nn2)CC1 | inconclusive: 35.5 µM [activator, single point]
Cc1ccc(C)n1-n1cnc2scc(-c3cccs3)c2c1=O | inconclusive: 35.5 µM [inhibitor, single point]
OCCN(CCO)Cc1ccc(Br)cc1 | inconclusive: 3.98 µM [activator, full curve]
N/C(=N\OC(=O)c1ccco1)c1cccc([N+](=O)[O-])c1 | inactive
COc1ccccc1NS(=O)(=O)c1cc(NC(=O)Nc2cccc(C)c2)ccc1N1CCCCC1 | inconclusive: 1.41 µM [inhibitor, full curve]
CCOC(=O)c1ccc(N2CSC3=C(C#N)C(c4ccc(OC)cc4OC)CC(=O)N3C2)cc1 (stereo not given) | inactive
O=C(CSCc1ccccc1)N=Nc1c(O)[nH]c2ccccc12 | inconclusive: 1 µM [activator, partial curve, poor fit]
COC(OC)c1ccnc(-c2ccc(OC(=O)c3ccc(F)cc3)cc2)n1 | inconclusive: 0.562 µM [inhibitor, partial curve, poor fit]
COCCN(C(=O)COC(=O)C1CCC(C(C)(C)C)CC1)c1c(N)n(Cc2ccccc2)c(=O)[nH]c1=O (stereo not given) | inconclusive: 35.5 µM [inhibitor, single point]
CCCSc1nc(SCC(=O)NCc2ccccc2)c2c3c(sc2n1)COC(C)(CC)C3 (stereo not given) | inconclusive: 29.1 µM [inhibitor, single point]
Cn1cc(Cl)c(C(=O)OCC(=O)c2ccccc2)n1 | inactive
N/C(CCN1CCCCC1)=N\O | inactive
Cc1cc(C)n(-c2ccc(Cl)c(C(=O)O)c2)n1 | inactive
O=C(c1cccc(S(=O)(=O)N2CCCCC2)c1)N1CCc2ccccc21 | inconclusive: 0.794 µM [activator, full curve, poor fit]

Part of the list above, reformatted:

| SMILES | Potency |
| --- | --- |
| CCOc1ccccc1OCC(=O)Nc1ccc(OC)c(S(=O)(=O)N2CCCCC2)c1 | inconclusive: 17.8 µM [inhibitor, single point] |
| CCN1CNC(=S)N(CCc2ccccc2)C1 | inconclusive: 0.355 µM [inhibitor, partial curve, poor fit] |
| CCC(=O)Nc1cccc(-c2cn3ccccc3n2)c1 | inconclusive: 35.5 µM [activator, single point] |
| COCCN(C(=O)COC(=O)C1CCC(C(C)(C)C)CC1)c1c(N)n(Cc2ccccc2)c(=O)[nH]c1=O (stereo not given) | inconclusive: 35.5 µM [inhibitor, single point] |
| CCCSc1nc(SCC(=O)NCc2ccccc2)c2c3c(sc2n1)COC(C)(CC)C3 (stereo not given) | inconclusive: 29.1 µM [inhibitor, single point] |

(cont.)

SMILES | Potency
CC1CCN(S(=O)(=O)c2ccc(NC(=O)N3c4ccccc4Sc4ccccc43)cc2)CC1 | inconclusive: 9.2 µM [inhibitor, partial curve, poor fit]
Cc1ccc2[nH]c(O)c(N=NC(=O)C3CC3c3ccccc3)c2c1Br (stereo not given) | inactive
COc1ccc(N2CCN(C(=O)c3ccccc3NS(=O)(=O)c3ccc(C)cc3)CC2)cc1 | inconclusive: 35.5 µM [inhibitor, single point]
CC1=C(C(=O)OCC(C)C)C(c2ccsc2)C2=C(CCCC2=O)N1 (stereo not given) | inactive
COc1cc(NC(=O)CSc2ncnc3c2cnn3Cc2ccccc2)cc(OC)c1 | inconclusive: 29.1 µM [inhibitor, single point]
CCOC(=O)N1CCN(S(=O)(=O)N(C)C)CC1 | inconclusive: 3.55 µM [activator, single point]
O=C1C2C3C=CC(CNS(=O)(=O)c4ccccc4)(O3)C2C(=O)N1c1ccc(Cl)cc1 (stereo not given) | inconclusive: 35.5 µM [inhibitor, single point]
O=C(N/N=C/c1cccnc1)c1ccc(NC(=O)c2ccccc2Cl)cc1 | inactive
c1cncc(CNc2nc(-c3cccnc3)nc3ccccc23)c1 | inactive
COc1ccc2cc(CNCCOCCOCCNCc3ccc4cc(OC)ccc4c3)ccc2c1 | inconclusive: 5.01 µM [inhibitor, full curve, poor fit]
COc1ccc(/C=C2\SC(=O)N(CCNC(=O)CN3C(=O)NC4(CCCC4)C3=O)C2=O)cc1 | inactive
COc1cc(/C=C/C(=O)c2ccc(O)cc2)ccc1OCC#N | inconclusive: 7.08 µM [inhibitor, full curve, poor fit]
O=C1CC(c2ccc(F)cc2)CC2=C1C(c1ccc([N+](=O)[O-])o1)Nc1ccccc1N2 (stereo not given) | active: 10 µM
CC(C)CC(=O)NC(NC(=S)Nc1cccc2cccnc12)C(Cl)(Cl)Cl (stereo not given) | active: 14.1 µM
O=C(c1ccccc1)C1N=NCC1c1ccc(Cl)cc1 (stereo not given) | inactive
Cn1cnnc1SCC(=O)Nc1nc(-c2ccccc2)cs1 | inactive
COCc1ccc(CN2CCC(n3nccc3NC(=O)C(OC)c3ccccc3)CC2)o1 (stereo not given) | inconclusive: 35.5 µM [activator, single point]
CC1CCN(CCCNC(=O)c2ccc3c(Cl)c4c(nc3c2)CCCC4)CC1 | active: 10 µM
N#Cc1ccc(NC(=O)COC(=O)CCc2ccc(S(=O)(=O)N3CCCCC3)cc2)cc1 | inconclusive: 35.5 µM [activator, single point]
CCOc1ccccc1Nc1nc(-c2cccnc2)cs1 | inactive
Cc1ccc(C2=Nc3ccccc3NC(C)(c3ccc(C)o3)C2)o1 (stereo not given) | inactive
Cc1cc(C)n(-c2ccc(C(=O)Nc3sccc3C(N)=O)cc2)n1 | inconclusive: 2.51 µM [activator, partial curve, poor fit]

Reference: PubChem BioAssay AID540276 (National Center for Advancing Translational Sciences (NCATS), 2011)
